Source: patent US10570104B2, “Metabolically programmed metal chelators and uses thereof” (University of Florida Research Foundation, Incorporated, priority 2015, dated 2020)

Key:
[1] = cited from earlier work
[2] = cited from earlier work; remark: listed apart in the source
[3] = Chelator-induced iron clearance (ICE) in iron-overloaded Cebus apella primates; assay type: in vivo, Cebus apella monkeys; settings: for Performance Ratio (PR): mean ICEprimates/ICErodents; for relative percentages of the iron excreted in the feces and urine: monosodium salt; for subcutaneous ICE vs oral ICE: primates
Experimental: Iron Loading of Cebus apella Monkeys. The monkeys (3.5-6.5 kg) were iron overloaded with intravenous iron dextran as specified in earlier publications to provide about 500 mg of iron per kg of body weight; the serum transferrin iron saturation rose to between 70 and 80%.^38,40 At least 20 half-lives, 60 days, elapsed before any of the animals were used in experiments evaluating iron-chelating agents.
Primate Fecal and Urine Samples. Fecal and urine samples were collected at 24 hours intervals and processed as described previously^38,40,74 Briefly, the collections began 4 days prior to the administration of the test drug and continued for an additional 5 days after the drug was given. Iron concentrations were determined by flame absorption spectroscopy as presented in other publications.^38′^40
Drug Preparation and Administration.
Calculation of Chelator Iron Clearing Efficiency (ICE).

[4] = 300 μmol/kg, monosodium salt
[5] = po, 300 μmol/kg, 48 hour sample collection period, historical

## C[C@]1(C(=O)O)CSC(c2ncccc2O)=N1 [Compound 1, (S)-4,5-dihydro-2-(3-hydroxy-2-pyridinyl)-4-methyl-4-thiazolecarboxylic acid]
[1]; po, 150 μmol/kg
  relative percentages of the iron excreted in the bile and urine [bile/urine]: 93/7
[2]; po, 150 μmol/kg, historical
  relative percentages of the iron excreted in the feces and urine: 78/22

## C[C@]1(C(=O)O)CSC(c2ccc(O)cc2O)=N1 [Compound 2, (S)-2-(2,4-dihydroxyphenyl)-4,5-dihydro-4-methyl-4-thiazolecarboxylic acid]
[1]; po, 300 μmol/kg, historical
  relative percentages of the iron excreted in the bile and urine [bile/urine]: 100/0
[2]; po, 150 μmol/kg, historical
  relative percentages of the iron excreted in the feces and urine: 88/12

## C[C@]1(C(=O)O)CSC(c2cccc(O)c2O)=N1 [Compound 3, (S)-2-(2,3-dihydroxyphenyl)-4,5-dihydro-4-methyl-4-thiazolecarboxylic acid]
[1]; po, 300 μmol/kg, historical
  relative percentages of the iron excreted in the bile and urine [bile/urine]: 98/2
[2]; po, 150 μmol/kg, historical
  relative percentages of the iron excreted in the feces and urine: 83/17

## COc1ccc(C2=N[C@@](C)(C(=O)O)CS2)c(O)c1 [Compound 4, (S)-4,5-dihydro-2-(2-hydroxy-4-methoxyphenyl)-4-methyl-4-thiazolecarboxylic acid]
[1]; po, 300 μmol/kg, historical
  relative percentages of the iron excreted in the bile and urine [bile/urine]: 98/2
[2]; po, 150 μmol/kg, historical
  relative percentages of the iron excreted in the feces and urine: 91/9

## COCCOCCOCCOc1ccc(C2=N[C@@](C)(C(=O)O)CS2)c(O)c1 [Compound 5, (S)-4,5-dihydro-2-[2-hydroxy-4-(3,6,9-trioxadecyloxy)phenyl]-4-methyl-4-thiazolecarboxylic acid]
[1]; po, 300 μmol/kg, historical
  relative percentages of the iron excreted in the bile and urine [bile/urine]: 90/10
[2]; po, 150 μmol/kg, historical
  relative percentages of the iron excreted in the feces and urine: 96/4

## COCCOCCOCCOc1cccc(C2=N[C@@](C)(C(=O)O)CS2)c1O [Compound 6, (S)-4,5-dihydro-2-[2-hydroxy-3-(3,6,9-trioxadecyloxy)phenyl]-4-methyl-4-thiazolecarboxylic acid]
[1]; [5]
  relative percentages of the iron excreted in the bile and urine [bile/urine]: 95/5
[2]; po, 150 μmol/kg, historical
  relative percentages of the iron excreted in the feces and urine: 95/5

## COCCOCCOc1ccc(C2=N[C@@](C)(C(=O)O)CS2)c(O)c1 [Compound 7, (S)-4,5-dihydro-2-[2-hydroxy-4-(3,6-dioxaheptyloxy)phenyl]-4-methyl-4-thiazolecarboxylic acid]
[3]; po, primates given capsules
  Performance Ratio (PR): 1.0
[3]; po, primates given monosodium salt
  Performance Ratio (PR): 1.1
[1]; [5]
  relative percentages of the iron excreted in the bile and urine [bile/urine]: 97/3
[2]; po, 75 μmol/kg, as monosodium salt, historical
  relative percentages of the iron excreted in the feces and urine: 83/17
[2]; po, 75 μmol/kg, in capsules, historical
  relative percentages of the iron excreted in the feces and urine: 93/7

## C[C@]1(C(=O)O)CSC(c2ccc(OCCOCCO)cc2O)=N1 [Compound 8, (S)-4,5-dihydro-2-[2-hydroxy-4-(5-hydroxy-3-oxapentyloxy)phenyl]-4-methyl-4-thiazolecarboxylic acid]
[3]; po
  Performance Ratio (PR): 0.6
[3]; po, 75 μmol/kg
  relative percentages of the iron excreted in the feces and urine: 54/46
[4]; po
  relative percentages of the iron excreted in the bile and urine [bile/urine]: 98/2

## C[C@]1(C(=O)O)CSC(c2ccc(OCCOCC(=O)O)cc2O)=N1 [Compound 9, (S)-4,5-dihydro-2-[2-hydroxy-4-(4-carboxy-3-oxabutyloxy)phenyl]-4-methyl-4-thiazolecarboxylic acid]
[3]; po
  Performance Ratio (PR): 0.3
[3]; sc
  Performance Ratio (PR): 1.5
[3]; po, 75 μmol/kg
  relative percentages of the iron excreted in the feces and urine: 51/49
[3]; 75 μmol/kg
  subcutaneous ICE vs oral ICE: 10.2 times and 10 times
[3]; same monkeys, 75 μmol/kg
  increase of ICE, subcutaneous vs oral: more than 10 fold
[3]; sc, 75 μmol/kg
  relative percentages of the iron excreted in the feces and urine: 84/16
[4]; po
  relative percentages of the iron excreted in the bile and urine [bile/urine]: 100/0
[4]; sc
  relative percentages of the iron excreted in the bile and urine [bile/urine]: 99/1

## COCCCCCCOc1ccc(C2=N[C@@](C)(C(=O)O)CS2)c(O)c1 [Compound 10, (S)-4,5-dihydro-2-[2-hydroxy-4-(6-methoxyhexyloxy)phenyl]-4-methyl-4-thiazolecarboxylic acid]
[4]; po
  relative percentages of the iron excreted in the bile and urine [bile/urine]: 99/1

## C[C@]1(C(=O)O)CSC(c2ccc(OCCCCCCO)cc2O)=N1 [Compound 11, (S)-4,5-dihydro-2-[2-hydroxy-4-(6-hydroxyhexyloxy)phenyl]-4-methyl-4-thiazolecarboxylic acid]
[3]; po
  Performance Ratio (PR): 2.2
[3]; po, 75 μmol/kg
  relative percentages of the iron excreted in the feces and urine: 90/10
[4]; po
  relative percentages of the iron excreted in the bile and urine [bile/urine]: 96/4

## C[C@]1(C(=O)O)CSC(c2ccc(OCCCCCC(=O)O)cc2O)=N1 [Compound 12, (S)-4,5-dihydro-2-[2-hydroxy-4-(5-carboxypentyloxy)phenyl]-4-methyl-4-thiazolecarboxylic acid]
[3]; po
  Performance Ratio (PR): 1.2
[3]; sc
  Performance Ratio (PR): 4.4
[3]; po, 75 μmol/kg
  relative percentages of the iron excreted in the feces and urine: 82/18
[3]; sc, 75 μmol/kg
  relative percentages of the iron excreted in the feces and urine: 69/31
[4]; po
  relative percentages of the iron excreted in the bile and urine [bile/urine]: 94/6
[4]; sc
  relative percentages of the iron excreted in the bile and urine [bile/urine]: 96/4

## C[C@]1(C(=O)O)CSC(c2ccc(OCCCC(=O)O)cc2O)=N1 [Compound 13, (S)-4,5-dihydro-2-[2-hydroxy-4-(3-carboxypropyloxy)phenyl]-4-methyl-4-thiazolecarboxylic acid]
[3]; po
  Performance Ratio (PR): 1.5
[3]; sc
  Performance Ratio (PR): 4.2
[3]; po, 75 μmol/kg
  relative percentages of the iron excreted in the feces and urine: 97/3
[3]; 75 μmol/kg
  subcutaneous ICE vs oral ICE: 3.4 times
[3]; sc, 75 μmol/kg
  relative percentages of the iron excreted in the feces and urine: 78/22
[4]; po
  relative percentages of the iron excreted in the bile and urine [bile/urine]: 89/11
[4]; sc
  relative percentages of the iron excreted in the bile and urine [bile/urine]: 95/5

## C[C@]1(C(=O)O)CSC(c2ccc(OCC(=O)O)cc2O)=N1 [Compound 14, (S)-4,5-dihydro-2-[2-hydroxy-4-(carboxymethoxy)phenyl]-4-methyl-4-thiazolecarboxylic acid]
[3]; po
  Performance Ratio (PR): 1.2
[3]; sc
  Performance Ratio (PR): 2.7
[3]; po, 75 μmol/kg
  relative percentages of the iron excreted in the feces and urine: 60/40
[3]; 75 μmol/kg
  subcutaneous ICE vs oral ICE: 5.3 times
[3]; sc, 75 μmol/kg
  relative percentages of the iron excreted in the feces and urine: 53/47
[4]; po
  relative percentages of the iron excreted in the bile and urine [bile/urine]: 89/11
[4]; sc
  relative percentages of the iron excreted in the bile and urine [bile/urine]: 94/6

## CC(=O)N(O)CCCCCNC(=O)CCC(=O)N(O)CCCCCNC(=O)CCC(=O)N(O)CCCCCN [DFO, desferrioxamine B]
[1]; sc, 150 μmol/kg
  relative percentages of the iron excreted in the bile and urine [bile/urine]: 74/26
[2]; sc, 150 μmol/kg
  relative percentages of the iron excreted in the feces and urine: 45/55

“And” between values parts separate entries of the source, which are not always exact repeats. Equal values may be shown once. Read-outs that look alike come from different tables or passages of the source.
